From paper PMC3940611
No constants are given. Whether binding was seen depends on the method and setting. Binding seen in cells or lysates may run through a third protein. Here binding means that the protein was enriched with, or labelled near, the bait; the list need not be complete. Where a sequence is shown, tags or fusion partners need not be part of it.

Amino acid sequences for entries named in this document (tags omitted).
UniProt P56546: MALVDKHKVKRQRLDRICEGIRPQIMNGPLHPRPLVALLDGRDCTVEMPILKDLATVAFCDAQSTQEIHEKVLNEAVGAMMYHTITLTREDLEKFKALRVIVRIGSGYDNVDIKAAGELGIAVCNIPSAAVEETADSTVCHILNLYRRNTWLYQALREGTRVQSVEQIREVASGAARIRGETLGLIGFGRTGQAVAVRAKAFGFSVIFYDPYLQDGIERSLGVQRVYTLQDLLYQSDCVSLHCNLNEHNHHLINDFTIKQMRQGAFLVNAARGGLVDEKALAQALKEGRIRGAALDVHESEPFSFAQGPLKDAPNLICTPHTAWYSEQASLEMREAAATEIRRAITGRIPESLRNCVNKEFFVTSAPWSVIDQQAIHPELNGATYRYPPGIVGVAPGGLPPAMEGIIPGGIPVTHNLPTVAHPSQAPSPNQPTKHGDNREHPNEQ

Target: T1, eGFP-Zscan4c fusion protein (mouse) (UniProt Q80VJ6)
T1 sequence: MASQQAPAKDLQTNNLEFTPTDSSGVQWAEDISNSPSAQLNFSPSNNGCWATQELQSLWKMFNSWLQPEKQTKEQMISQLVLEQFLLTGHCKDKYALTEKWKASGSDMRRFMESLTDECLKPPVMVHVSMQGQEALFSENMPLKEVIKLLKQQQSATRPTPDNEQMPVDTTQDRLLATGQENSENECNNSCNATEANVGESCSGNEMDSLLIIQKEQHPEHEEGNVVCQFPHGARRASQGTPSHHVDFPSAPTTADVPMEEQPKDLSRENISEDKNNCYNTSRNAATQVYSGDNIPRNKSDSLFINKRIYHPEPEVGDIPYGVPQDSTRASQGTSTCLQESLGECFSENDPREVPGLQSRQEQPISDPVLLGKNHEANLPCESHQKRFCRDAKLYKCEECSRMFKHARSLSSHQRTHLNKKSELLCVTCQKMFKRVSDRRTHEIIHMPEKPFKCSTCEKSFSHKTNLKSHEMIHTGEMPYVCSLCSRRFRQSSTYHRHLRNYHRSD
Test: affinity purification with mass spectrometry; eGFP-Zscan4c induced with Dox for 24 h in R1 ESCs; cytosolic and nuclear extracts exchanged into IP buffer (50 mM Na2HPO4, 150 mM NaCl, pH 7.4); GFP-Trap-A beads 1-3 h at 4°C; glycine pH 2.5 elution; SDS-PAGE, Coomassie bands enriched over uninduced cells excised, LC-MSMS, Mascot

binding: binds
Substance: C-Terminal Binding Protein-2 (CtBP2) (from UniProt P56546 1-445)
